According to paper PMC5864917 (2018):

How the values were obtained:
[1] = target: T1, peptide-15 of SE36 (Plasmodium falciparum (Honduras-1)); assay: ELISA; SE36, SE36-1 to -4 or SE36 peptides adsorbed to the plate; human serum (NHS or HTS, 1:2000 or at the indicated dilutions) added, 2 h, room temperature; bound VTN detected by anti-VTN antibody; only the target purified
T1 sequence (peptide): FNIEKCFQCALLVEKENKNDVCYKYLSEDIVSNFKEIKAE

[2] = target: T1, peptide-15 of SE36 (Plasmodium falciparum (Honduras-1)); assay: ELISA; SE36, SE36-1 to -4 (1 μg/mL) or SE36 peptides (0.3 μM) adsorbed to the plate in carbonate buffer pH 9.6; purified or recombinant human protein added (VTN 2 μg/mL or at the indicated concentrations) in PBS-0.05% Tween 20 with 5% skim milk, 2 h, room temperature; detected by antibody; both purified

Vitronectin (VTN), human
binding [1]: binds
binding [2]: binds

Results are given in words; binding and its absence hold for the method and conditions named. Binding can be weak; no strength is given.
